# Reference: US20200325505A1, “FILAMENTOUS FUNGI CAPABLE OF PRODUCING VERY LONG CHAIN FATTY ACIDS” (UT-Battelle, LLC, priority 2019, published 2020)
# Experiments:
# [1] = system: Mortierella elongata AG77; test: Nitrogen source utilisation in Biolog 96-well plates, formazan formation after tetrazolium addition; type: cell-based; settings: compound as nitrogen source
# Description: Two 300 mL volumes of growth medium comprising 1 g/L KH2PO4, 1 g/L MgSO4 7H2O, 0.1 g/L CaCl2, 0.02 g/L FeNaEDTA, 0.1 g/L NaCl, and either 1 g/L NH4NO3 or 20 g/L sucrose were prepared. […] Aliquots of 200 μL of carbon-free medium or nitrogen-free medium were pipetted into each well of a set of 96-well plates previously prepared with lyophilized putative carbon or nitrogen sources (Biolog Inc., Hayward, Calif.). Inocula were prepared by perforating a culture of Mortierella elongata AG77 grown on 20 g/L potato dextrose agar with a 3 mm diameter cork borer and separating the surface mycelial mat from the solid growth medium using tweezers. Each well was inoculated with one inoculum. Cultures were incubated at 21° C. for 24 hours to allow metabolic changes to stabilize, and then 100 μL of 3 g/L tetrazolium chloride in water was added to each well.
# Conclusions were based on rate and intensity of formazan formation using the 3-(4,5-dimethylthiazol-2-yl)-2,5-diphenyltetrazolium bromide ([…]) assay. “Metabolized” indicates more formazan formation than a control containing no nitrogen source, and “Toxic” indicates less formazan formation than a control containing no nitrogen source, “Metabolized” and “Toxic” assignments are mutually exclusive. In this example, a compound may be “Metabolized” or “Toxic,” but not both.
# [2] = system: Mortierella elongata AG77; test: Carbon source utilisation in Biolog 96-well plates, formazan formation after tetrazolium addition; type: cell-based
# Description: Two 300 mL volumes of growth medium comprising 1 g/L KH2PO4, 1 g/L MgSO4 7H2O, 0.1 g/L CaCl2, 0.02 g/L FeNaEDTA, 0.1 g/L NaCl, and either 1 g/L NH4NO3 or 20 g/L sucrose were prepared. Acidity was adjusted to 5.5 using NaOH and volumes of growth medium were autoclaved 30 min at 121° C. to sterilize. Aliquots of 200 μL of carbon-free medium or nitrogen-free medium were pipetted into each well of a set of 96-well plates previously prepared with lyophilized putative carbon or nitrogen sources (Biolog Inc., Hayward, Calif.). Inocula were prepared by perforating a culture of Mortierella elongata AG77 grown on 20 g/L potato dextrose agar with a 3 mm diameter cork borer and separating the surface mycelial mat from the solid growth medium using tweezers. Each well was inoculated with one inoculum. Cultures were incubated at 21° C. for 24 hours to allow metabolic changes to stabilize, and then 100 μL of 3 g/L tetrazolium chloride in water was added to each well. Formazan formation was observed visually at 2 h, 24 h, and 148 h.
# Conclusions were based on rate and intensity of formazan formation using the 3-4,5-dimethylthiazol-2-yl)-2,5-diphenyltetrazolium bromide (MTT) assay. “Metabolized” indicates more formazan formation than a control containing no carbon source, and “Toxic” indicates less formazan formation than a control containing no carbon source. “Metabolized” and “Toxic” assignments are mutually exclusive. In this example, a compound may be “Metabolized” or “Toxic,” but not both.
smiles,measurement,setting,value
NCCC[C@H](N)C(=O)O [L-Ornithine],Metabolized,"[1]; Metabolized = more formazan formation than a control containing no nitrogen source, observed visually at 2 h, 24 h, 148 h",no
same,Toxic,[1]; Toxic = less formazan formation than a control containing no nitrogen source,no
same,Metabolized,"[2]; compound as carbon source, Metabolized = more formazan formation than a control containing no carbon source, observed visually at 2 h, 24 h, 148 h",yes
same,Toxic,"[2]; compound as carbon source, Toxic = less formazan formation than a control containing no carbon source",no
same,Carbon sources that Mortierella elongata AG77 can metabolize,[2]; summary of Table 3,can metabolize
